Measured values taken from PMC12533200.
No constants are given. Whether binding was seen depends on the method and setting. Binding seen in cells or lysates may run through a third protein. A yes stands for co-enrichment or nearness to the bait. Other partners may have been found.

Protein sequences, listed by entry. Tags and fused reporters are not part of them.
UniProt A5YKK6: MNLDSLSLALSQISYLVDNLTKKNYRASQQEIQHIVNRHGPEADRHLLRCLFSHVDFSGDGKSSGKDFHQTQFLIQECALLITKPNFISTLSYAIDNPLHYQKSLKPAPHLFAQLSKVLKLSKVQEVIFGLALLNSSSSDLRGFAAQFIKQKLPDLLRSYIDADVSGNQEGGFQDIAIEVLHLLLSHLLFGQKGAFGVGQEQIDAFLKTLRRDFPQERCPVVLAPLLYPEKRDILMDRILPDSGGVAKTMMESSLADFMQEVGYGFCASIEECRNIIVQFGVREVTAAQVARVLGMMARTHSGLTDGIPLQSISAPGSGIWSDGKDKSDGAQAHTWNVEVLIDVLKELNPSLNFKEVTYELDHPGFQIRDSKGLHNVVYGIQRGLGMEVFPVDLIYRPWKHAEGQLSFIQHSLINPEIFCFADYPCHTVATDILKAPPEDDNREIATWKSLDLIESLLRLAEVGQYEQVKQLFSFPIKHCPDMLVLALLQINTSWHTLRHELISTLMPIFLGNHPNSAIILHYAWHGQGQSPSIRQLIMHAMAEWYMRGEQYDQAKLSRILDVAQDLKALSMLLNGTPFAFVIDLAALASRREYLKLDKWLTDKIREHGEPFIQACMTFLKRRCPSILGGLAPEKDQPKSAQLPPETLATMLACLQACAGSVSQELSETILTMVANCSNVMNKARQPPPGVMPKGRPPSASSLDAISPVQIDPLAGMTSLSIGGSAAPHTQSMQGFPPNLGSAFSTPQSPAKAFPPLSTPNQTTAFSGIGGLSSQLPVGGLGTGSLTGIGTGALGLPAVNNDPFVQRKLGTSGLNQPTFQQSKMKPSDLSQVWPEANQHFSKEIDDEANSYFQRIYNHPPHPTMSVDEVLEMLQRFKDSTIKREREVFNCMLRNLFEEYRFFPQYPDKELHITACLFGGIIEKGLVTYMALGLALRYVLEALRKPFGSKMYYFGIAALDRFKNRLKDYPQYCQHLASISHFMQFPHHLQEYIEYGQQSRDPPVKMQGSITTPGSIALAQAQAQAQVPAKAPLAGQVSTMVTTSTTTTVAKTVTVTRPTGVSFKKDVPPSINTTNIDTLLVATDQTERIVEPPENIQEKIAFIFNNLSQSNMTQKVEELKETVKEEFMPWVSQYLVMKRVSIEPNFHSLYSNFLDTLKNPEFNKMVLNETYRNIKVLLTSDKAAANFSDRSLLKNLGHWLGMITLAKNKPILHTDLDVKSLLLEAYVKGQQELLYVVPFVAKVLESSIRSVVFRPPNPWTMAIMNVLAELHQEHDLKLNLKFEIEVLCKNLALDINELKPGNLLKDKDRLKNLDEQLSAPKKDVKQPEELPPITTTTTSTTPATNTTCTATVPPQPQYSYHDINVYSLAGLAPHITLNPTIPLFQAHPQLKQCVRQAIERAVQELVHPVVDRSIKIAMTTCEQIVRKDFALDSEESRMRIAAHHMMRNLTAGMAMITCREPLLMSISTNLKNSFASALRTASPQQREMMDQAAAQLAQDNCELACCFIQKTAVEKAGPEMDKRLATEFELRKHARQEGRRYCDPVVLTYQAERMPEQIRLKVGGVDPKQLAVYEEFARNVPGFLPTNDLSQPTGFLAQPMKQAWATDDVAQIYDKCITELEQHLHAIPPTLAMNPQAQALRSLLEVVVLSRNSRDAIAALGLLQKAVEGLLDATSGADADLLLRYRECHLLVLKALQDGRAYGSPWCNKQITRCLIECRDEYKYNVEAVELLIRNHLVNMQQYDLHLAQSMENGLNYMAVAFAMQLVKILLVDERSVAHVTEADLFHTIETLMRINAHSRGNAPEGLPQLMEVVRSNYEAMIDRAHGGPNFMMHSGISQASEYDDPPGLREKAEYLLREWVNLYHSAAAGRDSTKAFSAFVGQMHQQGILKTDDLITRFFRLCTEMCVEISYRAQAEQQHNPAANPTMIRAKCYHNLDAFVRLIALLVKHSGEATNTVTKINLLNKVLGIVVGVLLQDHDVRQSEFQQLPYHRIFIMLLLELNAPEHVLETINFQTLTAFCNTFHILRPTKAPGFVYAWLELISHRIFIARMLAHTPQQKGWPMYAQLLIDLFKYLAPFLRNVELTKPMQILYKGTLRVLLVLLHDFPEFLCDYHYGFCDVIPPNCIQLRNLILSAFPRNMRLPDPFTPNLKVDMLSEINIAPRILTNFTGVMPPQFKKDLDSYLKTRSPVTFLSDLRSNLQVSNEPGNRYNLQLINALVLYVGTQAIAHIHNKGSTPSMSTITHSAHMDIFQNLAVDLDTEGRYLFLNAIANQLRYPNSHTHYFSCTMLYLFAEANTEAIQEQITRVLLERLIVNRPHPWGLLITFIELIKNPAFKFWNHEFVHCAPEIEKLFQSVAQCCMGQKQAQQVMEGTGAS

Biological target: T1, Lethal(2) giant larvae protein homolog 2 (LLGL2), endogenous (human (endogenous in SW620 and RKO)) (UniProt Q6P1M3)
T1 sequence: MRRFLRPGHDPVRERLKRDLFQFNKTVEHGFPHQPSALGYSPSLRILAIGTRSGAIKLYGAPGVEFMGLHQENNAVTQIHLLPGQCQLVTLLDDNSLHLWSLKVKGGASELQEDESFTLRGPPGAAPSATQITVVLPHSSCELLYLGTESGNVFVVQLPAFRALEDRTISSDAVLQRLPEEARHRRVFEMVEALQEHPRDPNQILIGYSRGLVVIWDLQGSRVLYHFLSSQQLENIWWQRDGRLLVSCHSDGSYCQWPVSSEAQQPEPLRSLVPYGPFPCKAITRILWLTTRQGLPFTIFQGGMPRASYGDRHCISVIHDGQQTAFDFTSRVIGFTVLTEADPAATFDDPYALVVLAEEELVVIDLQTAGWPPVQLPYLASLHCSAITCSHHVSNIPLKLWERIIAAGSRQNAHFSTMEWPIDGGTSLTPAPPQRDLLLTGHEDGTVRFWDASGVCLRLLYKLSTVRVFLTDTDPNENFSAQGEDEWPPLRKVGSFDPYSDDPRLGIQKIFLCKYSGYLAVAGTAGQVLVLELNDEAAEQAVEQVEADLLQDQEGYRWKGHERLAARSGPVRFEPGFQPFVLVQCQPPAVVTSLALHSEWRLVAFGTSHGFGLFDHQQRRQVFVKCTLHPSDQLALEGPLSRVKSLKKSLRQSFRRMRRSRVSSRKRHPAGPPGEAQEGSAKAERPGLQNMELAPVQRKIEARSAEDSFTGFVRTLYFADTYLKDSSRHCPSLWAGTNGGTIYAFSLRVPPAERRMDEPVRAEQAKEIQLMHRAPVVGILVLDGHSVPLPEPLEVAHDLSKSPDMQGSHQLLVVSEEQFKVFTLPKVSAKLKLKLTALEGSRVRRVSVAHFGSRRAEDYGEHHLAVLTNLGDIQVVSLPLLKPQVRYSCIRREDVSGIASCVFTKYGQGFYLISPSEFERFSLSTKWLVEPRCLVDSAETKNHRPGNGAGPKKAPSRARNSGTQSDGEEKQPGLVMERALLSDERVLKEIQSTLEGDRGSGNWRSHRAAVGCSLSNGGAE
Test: affinity purification with mass spectrometry; shotgun mass spectrometry of proteins interacting with LLGL2; bait, cells and conditions not told

CCR4‐NOT transcription complex subunit 1 (CNOT1), endogenous (from UniProt A5YKK6 1-2376)
binding: binds
